PubChem BioAssay AID1508597, Cure First, 2020
This is an unselected part of the about 2,100 reagents, under one of the conditions tested. 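Calls flag viability under 80% in either arm, not effects specific to rucaparib; the reference for percent is not stated.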 Some reagents were tested in more than one well and are listed for each. Not given: the 100% reference.

Test: 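Genes whose silencing sensitises or protects ovarian cancer cells against rucaparib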 (primary screen)
Cells: human ovarian carcinoma lines grown from tumours: OCI-P5x (papillary serous) and OCI-C5x (clear cell)
Reagents: siRNA pool against human genes, 1.25 pmol siRNA per well
Timing: 72 h or 96 h, depending on the cell culture
Treatment: rucaparib 20 µM (about IC30) or vehicle, present until read-out
Rucaparib or vehicle: Vehicle
Cell line: OCI-P5x (serous)
Measured: 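Luminescent ATP-based viability assay read 72 or 96 h after transfection, depending on culture, given as normalised percent viability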
Scale: viability, normalised: higher = more viable cells remaining
Rule for the call: 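Active when normalised viability falls below 80 percent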
Calls: active = viability under 80%; inactive = viability 80% or more

| gene symbol | PubChem SID | technical replicate | viability, normalised (%) | call |
| --- | --- | --- | --- | --- |
| ASF1A | SID405527988 | 1 | 68.3 | active |
| ASF1A | SID405527988 | 2 | 77.4 | active |
| ASF1A | SID405527988 | 3 | 76.8 | active |
| HFM1 | SID405526855 | 1 | 79.6 | active |
| HFM1 | SID405526855 | 2 | 71.7 | active |
| HFM1 | SID405526855 | 3 | 84.4 | inactive |
| POLD3 | SID405528480 | 1 | 72.2 | active |
| POLD3 | SID405528480 | 2 | 76.5 | active |
| POLD3 | SID405528480 | 3 | 69.2 | active |
| ATXN7L3 | SID405528004 | 1 | 57.4 | active |
| ATXN7L3 | SID405528004 | 2 | 60.5 | active |
| ATXN7L3 | SID405528004 | 3 | 73.9 | active |
| SPAG11B | SID405528452 | 1 | 70.9 | active |
| SPAG11B | SID405528452 | 2 | 55.8 | active |
| SPAG11B | SID405528452 | 3 | 48.1 | active |
| ERBB4 | SID405527928 | 1 | 66.7 | active |
| ERBB4 | SID405527928 | 2 | 66.2 | active |
| ERBB4 | SID405527928 | 3 | 62.2 | active |
| PET117 | SID405527136 | 1 | 71.6 | active |
| PET117 | SID405527136 | 2 | 75.1 | active |
| PET117 | SID405527136 | 3 | 74 | active |

Single entries from the entries so far.
Entry of ERBB4 [SID405527928], technical replicate 2 in “call”: active
Value for ASF1A [SID405527988], technical replicate 3 under “viability, normalised (%)”: 76.8

More reagents follow.
| gene symbol | PubChem SID | technical replicate | viability, normalised (%) | call |
| --- | --- | --- | --- | --- |
| PLCB2 | SID405526706 | 1 | 80.1 | inactive |
| PLCB2 | SID405526706 | 2 | 72 | active |
| PLCB2 | SID405526706 | 3 | 86.6 | inactive |
| YJU2B | SID405526314 | 1 | 77.2 | active |
| YJU2B | SID405526314 | 2 | 78.7 | active |
| YJU2B | SID405526314 | 3 | 78.7 | active |
| STK3 | SID405528512 | 1 | 67.9 | active |
| STK3 | SID405528512 | 2 | 70 | active |
| STK3 | SID405528512 | 3 | 68 | active |
| TK1 | SID405528298 | 1 | 86.3 | inactive |
| TK1 | SID405528298 | 1 | 87.2 | inactive |
| TK1 | SID405528298 | 2 | 84.1 | inactive |
| TK1 | SID405528298 | 2 | 82.6 | inactive |
| TK1 | SID405528298 | 3 | 88.9 | inactive |
| TK1 | SID405528298 | 3 | 74.1 | active |
| ENPP5 | SID405526670 | 1 | 65.4 | active |
| ENPP5 | SID405526670 | 2 | 71.4 | active |
| ENPP5 | SID405526670 | 3 | 95.3 | inactive |
